# US5844102A, “Glycohydrolase inhibitors, their preparation and use thereof” (University of Maryland Baltimore County, priority 1994, dated 1998)
# At least one structure is not confirmed: it was looked up by name or label, or the drawing left a doubt.
# Biological target: β-glucosidase (almonds)
# Assay: β-glucosidase inhibition, p-nitrophenol-β-glucopyranoside substrate
# Format: biochemical
# Settings: 37° C., phosphate buffer 0.05M, pH 6.8; read-out: Ki (inhibition constant), β-Glucosidase
# Experimental: The enzymes α-glucosidase (yeast), β-glucosidase (almonds), isomaltase (bakers yeast) and α-mannosidase (jackbean) were purchased from Sigma Chemical Company. Glucoamylase was isolated by the present inventors by expressing the gene from Aspergillus awamori in yeast, by methods well known in the art. Enzyme assays were performed by using p-nitrophenol -α (or β)-glucopyranosides as substrate at 37° C. in phosphate buffer (0.05M, pH 6.8) for α (β)-glucosidase and isomaltase, and p-nitrophenol-α-mannopyranoside as substrate at 25° C. in citrate (0.05M, pH 4.5) buffer for α-mannosidase. Glucoamylase was assayed using maltose as substrate at 50° C. in sodium acetate buffer (0.05M, pH 4.5).
# Michaelis-Menten constant, Km, was calculated using software Grafit (Erithacus Software Ltd.). Ki was calculated by plotting K^appm vs. [Inhibitor]. FIG. 2(a) represents a plot of K^appm vs. [Inhibitor], wherein the inhibitor is the monosaccharide sugar analog isofagomin, obtained for five different glycosidases. FIG. 2(b) represents a similar plot of K^appm vs. [Inhibitor], wherein the inhibitor is the disaccharide sugar analog of formula II, obtained for five different glycosidases.
compound,measurement,value
"CO[C@H]1O[C@H](CCN2C[C@H](CO)[C@@H](O)[C@H](O)C2)[C@@H](O)[C@H](O)[C@H]1O [TMJ, Methyl 6,7-dideoxy-7-[(3R,4R,5R)-3,4-dihydroxy-5-hydroxymethyl-piperidinyl]-α-D-gluco-heptopyranoside]",Ki,2300 nM
